Source: patent US20250057951A1, “DISCERNIBLE CELL SURFACE PROTEIN VARIANTS OF CD117 FOR USE IN CELL THERAPY” (UNIVERSITÄT BASEL, priority 2021, published 2025)
No constants are given. Whether binding was seen depends on the method and setting. Some entries that bind do so weakly or less than the wild type.

By UniProt entry, the sequences of proteins in these tests, tags left out. Where a name states a change or a piece, a line headed by the entry shows the natural chain unless it says otherwise.
UniProt P21583: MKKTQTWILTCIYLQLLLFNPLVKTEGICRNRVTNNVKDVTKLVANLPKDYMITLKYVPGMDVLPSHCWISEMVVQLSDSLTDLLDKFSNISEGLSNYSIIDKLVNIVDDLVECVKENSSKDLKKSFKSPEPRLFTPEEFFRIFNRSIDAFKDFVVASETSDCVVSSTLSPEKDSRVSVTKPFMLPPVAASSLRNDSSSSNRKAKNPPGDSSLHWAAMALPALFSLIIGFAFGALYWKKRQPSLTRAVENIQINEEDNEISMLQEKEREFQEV

What was measured:
Test in all cases: BLI (Octet), steady state: biotinylated SCF on streptavidin biosensor, CD117 D1-2-3 variant as analyte; KD relative to WT
[1] = target: Y259H
[2] = target: I201V
[3] = target: E73M
[4] = target: E73F
[5] = target: E73W
[6] = target: T74M
[7] = target: E73I
[8] = target: K127G
[9] = target: Y259C
[10] = target: S123D

- binding [1]: binds
- binding [2]: binds
- binding [3]: binds
- binding [4]: binds
- binding [5]: binds
- binding [6]: binds
- binding [7]: binds
- binding [8]: binds
- binding [9]: binds
- binding [10]: binds
Substance: Biotinylated Avitag-hSCF (from UniProt P21583 26-190) (ligand)
